Reference: paper doi:10.1101/2022.06.22.497281

Assays:
Test in all cases: co-IP
[1] = biological target: GFP-tagged AAEL004859 (Aedes aegypti)
[2] = biological target: GFP-tagged Dhx15 (AAEL004419) (Aedes aegypti) (UniProt Q17CT5)
[3] = biological target: GFP-tagged Dhx15 (AAEL004419) (Aedes aegypti) (UniProt Q17CT5); remark: listed apart in the source

Measured: binding

Flag-tagged AAEL008728 (from UniProt Q16XX2)
binds: [1] | [2] | [3]

Where two headings read alike, the source gives them in different places. Results are given in words; binding and its absence hold for the method and conditions named. In cells and extracts the contact can be indirect. A result given as binding can be weak or reduced; the word gives no strength.
